From PubChem BioAssay AID504834 (National Center for Advancing Translational Sciences (NCATS), 2011)
About 22,000 (6.9%) of roughly 320,000 compounds were called active. The inconclusive results got no clear call from the source; some entries with a clear call stand among them for comparison. Calls follow the shape of the dose curve; as a rule, active = well fitted inhibition curve with a large enough effect; inconclusive = small, poorly fitted or top-dose-only effect, or another doubt; inactive = no such curve, though single readings can be large or run the other way. Where the call is inconclusive, the potency comes from a doubtful curve fit.

assay: Primary qHTS for delayed death inhibitors of the malarial parasite plastid, 96 hour incubation; settings: P. falciparum luciferase reporter growth; series mostly up to 28.7 µM
In short: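 Parasite growth measured via integrated firefly luciferase reporter in P. falciparum. Infected erythrocytes at 2% hematocrit, 0.05% parasitemia final were treated 96 hours at 37 C under 5% CO2, and luminescence was read.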
Potency is read from the fitted curve at half-maximal effect.

Row | Compound | Potency
1 | CCCCCCC1NC(C(=O)O)CS1 (configuration not stated) | inactive
2 | CCOc1ccc(NC(=S)c2ccncc2)cc1 | active: 9.28 µM
3 | CCCCN(Cc1ccccc1)C(=O)C1CCCN(S(=O)(=O)c2cnc[nH]2)C1 (configuration not stated) | inconclusive: 0.104 µM [inhibitor, full curve, poor fit]
4 | CCC1=C(OC(=O)N(CC)CC)N2C(=O)OC(=NCC(=O)OC)[C@]2(C)[C@H]2C1=CC[C@H]1C(=O)NC(=O)[C@H]12 | inactive
5 | Cc1ccc(C)c(CNS(=O)(=O)c2ccc3c(c2)C(C)(C)C(=O)N3C)c1 | inconclusive: 18.5 µM [inhibitor, single point]
6 | O=C(NC12CC3CC(CC(C3)C1)C2)c1cc(F)c(F)c(F)c1F | inactive
7 | CCCCCCNC(=O)N[C@H](Cc1ccc(O)cc1)C(=O)NCCC[C@H]1CN2C(=NC[C@H]2CCC)N1CC1CCC1 | active: 2.94 µM
8 | CCCCc1ccc(NC2=NCC(=O)N2CCc2ccccc2)cc1 | inconclusive: 13.1 µM [inhibitor, single point]
9 | CN(C)c1ccc(C2SCCN2C(=O)c2ccc([N+](=O)[O-])cc2)cc1 (configuration not stated) | inactive
10 | CCN(Cc1ccccc1)c1ccc(/C=N/NS(=O)(=O)c2cccc([N+](=O)[O-])c2)cc1 | inactive
11 | CCCCOC(=O)C1Cc2ccccc2C(=O)O1 (configuration not stated) | inactive
12 | CSC1=NCCN1S(=O)(=O)c1ccccc1 | inactive
13 | CCOC(=O)N1CCC(NC(=O)Cn2cc3c(n2)CCCC3)CC1 | inconclusive: 0.0738 µM [inhibitor, full curve, poor fit]
14 | CCOC(=O)c1c(-c2ccccc2)c2cc(OC)ccc2n1CCCN(C)C | inactive
15 | COC(=O)c1cc(C(=O)OC)cc(S(=O)(=O)Nc2ccc(Cl)c(N)c2)c1 | inconclusive: 16.5 µM [inhibitor, single point]
16 | O=C1CN(C(=O)COC(=O)c2cccc(OCc3ccccc3)c2)c2ccccc2N1 | inconclusive: 10.4 µM [inhibitor, single point]
17 | CC1CCCN(Cc2cccc(Oc3ccccc3)c2)C1 (configuration not stated) | inactive
18 | NC1=NC(c2ccc(Cl)cc2)n2c(nc3ccccc32)N1 (configuration not stated) | inconclusive: 11.7 µM [inhibitor, single point]
19 | N=c1c2ccccc2nnn1-c1cccc(C(F)(F)F)c1 | inconclusive: 1.47 µM [inhibitor, full curve, poor fit]
20 | CCCCCCSc1cccc(-c2nc3cc(C)ccn3c2NC2CCCCC2)c1 | inconclusive: 0.131 µM [inhibitor, partial curve, poor fit]
21 | CN(C)S(=O)(=O)c1ccc2c(c1)nc(CCC(=O)Nc1ccc(N3CCOCC3)cc1)n2C | inactive
22 | CCCOC(=O)C1=C(C)NC2=C(C(=O)C(C(=O)OC)C(C)C2)C1c1ccc(N(CC)CC)cc1 (configuration not stated) | inconclusive: 18.5 µM [inhibitor, single point]
23 | CC(NC(=O)C1CCCN1S(=O)(=O)c1cccc2nsnc12)c1ccccc1 (configuration not stated) | inconclusive: 18.5 µM [inhibitor, single point]
24 | C=CCN1C(=O)c2ccc(C(=O)NCCc3ccc(OC)c(OC)c3)cc2C1=O | inconclusive: 11.7 µM [inhibitor, single point]

Sorted by number of heavy atoms (high to low): part of the list above
Row | Compound | Potency
9 | CN(C)c1ccc(C2SCCN2C(=O)c2ccc([N+](=O)[O-])cc2)cc1 (configuration not stated) | inactive
6 | O=C(NC12CC3CC(CC(C3)C1)C2)c1cc(F)c(F)c(F)c1F | inactive
2 | CCOc1ccc(NC(=S)c2ccncc2)cc1 | active: 9.28 µM

Next part:

Row | Compound | Potency
25 | CCOc1ccc(N(CC(=O)NCCSc2ccccn2)S(=O)(=O)c2ccc(Cl)cc2)cc1 | inconclusive: 10.4 µM [inhibitor, partial curve]
26 | COc1ccc(C(=O)O/N=C/c2ccc(S(=O)c3ccc(Cl)cc3)nc2)cc1 (configuration not stated) | inconclusive: 2.62 µM [inhibitor, partial curve, poor fit]
27 | C/C(=N/NC(=O)c1cccs1)c1cccs1 | inactive
28 | Cc1ccc2c(c1)cc1c(=O)n(CC(=O)N(C)c3ccccc3)nc(C)n12 | inconclusive: 14.7 µM [inhibitor, single point]
29 | C(=N\Nc1nc2ccccc2s1)/c1ccccn1 | inactive
30 | CN(C)CCSc1nc(-c2ccccc2)nc2c1CCC2 | inconclusive: 18.5 µM [inhibitor, single point]
31 | CCOC(=O)C1=C(COC(=O)CCNS(=O)(=O)c2ccc(C)c(C)c2)NC(=O)NC1C (configuration not stated) | inactive
32 | O=C(O)c1cc(NS(=O)(=O)c2cccc3nsnc23)cc(C(=O)O)c1 | active: 7.38 µM
33 | CC(C)(C)CN1C(N)=NC[C@H]1Cc1ccc(O)cc1 | active: 4.65 µM
34 | O=C(CSC1=NCCS1)NC(NC(=O)CSC1=NCCS1)c1ccccc1 | inactive
35 | CCCCCn1c(=O)[nH]c2cc(C(=O)NCCCN3CCCCC3CC)ccc2c1=O (configuration not stated) | inconclusive: 5.86 µM [inhibitor, partial curve]
36 | Cc1c(C(=O)Nc2c(C)n(C)n(-c3ccccc3)c2=O)oc2ccc(Cl)cc12 | inconclusive: 14.7 µM [inhibitor, single point]
37 | CC(C)CC(=O)N1CCN(Cc2ccc3ccccc3c2)CC1 | inactive
38 | Cc1ccccc1OCC(=O)N/N=C/c1sc(=O)n(Cc2cccc(C(=O)O)c2)c1Cl | inconclusive: 13.1 µM [inhibitor, single point]
39 | CCc1ccc(NC(=O)COC(=O)CCC2CCCC2)cc1 | inconclusive: 18.5 µM [inhibitor, single point]
40 | COC(=O)c1cccc([N+](=O)[O-])c1CN1CCCC(C(N)=O)C1 (configuration not stated) | inactive
41 | Cn1c(=O)[nH]c(=O)c2c1nc(NC1CCCCC1)n2Cc1ccccc1 | inconclusive: 10.4 µM [inhibitor, single point]
42 | CSCCC(NS(=O)(=O)c1ccccc1)C(=O)OCc1cc(=O)oc2cc(O)ccc12 (configuration not stated) | inconclusive: 18.5 µM [inhibitor, single point]
43 | CCn1c(CNC(=O)c2ccccc2Cl)cc2ccccc21 | inactive
44 | Cc1ccc(-c2csc3ncnc(Oc4cccc5ccc(C)nc45)c23)cc1 | inconclusive: 6.57 µM [inhibitor, partial curve, poor fit]
45 | CCOc1ccc(CN2CCNC(=O)C2CC(=O)NC2CCOCC2)cc1 (configuration not stated) | inactive
46 | O=S(=O)(c1ccc(NC(=S)NN=C(C2CC2)C2CC2)cc1)N1CCOCC1 | inconclusive: 14.7 µM [inhibitor, single point]
47 | COc1cccc(NC(=O)CNC(=O)Cn2cnc3sc4c(c3c2=O)CCCC4)c1 | inconclusive: 4.15 µM [inhibitor, partial curve]
